Experimental data taken from the supplement of paper PMC10849652.
The list shows a part of the results. Residues, ends and D or L forms follow the SMILES beside them. *: point of attachment. Cbz = O=C(OCc1ccccc1)*

By UniProt entry, the sequences of proteins in these tests, tags left out. Where a name states a change or a piece, a line headed by the entry shows the natural chain unless it says otherwise.
UniProt Q9Y3X0: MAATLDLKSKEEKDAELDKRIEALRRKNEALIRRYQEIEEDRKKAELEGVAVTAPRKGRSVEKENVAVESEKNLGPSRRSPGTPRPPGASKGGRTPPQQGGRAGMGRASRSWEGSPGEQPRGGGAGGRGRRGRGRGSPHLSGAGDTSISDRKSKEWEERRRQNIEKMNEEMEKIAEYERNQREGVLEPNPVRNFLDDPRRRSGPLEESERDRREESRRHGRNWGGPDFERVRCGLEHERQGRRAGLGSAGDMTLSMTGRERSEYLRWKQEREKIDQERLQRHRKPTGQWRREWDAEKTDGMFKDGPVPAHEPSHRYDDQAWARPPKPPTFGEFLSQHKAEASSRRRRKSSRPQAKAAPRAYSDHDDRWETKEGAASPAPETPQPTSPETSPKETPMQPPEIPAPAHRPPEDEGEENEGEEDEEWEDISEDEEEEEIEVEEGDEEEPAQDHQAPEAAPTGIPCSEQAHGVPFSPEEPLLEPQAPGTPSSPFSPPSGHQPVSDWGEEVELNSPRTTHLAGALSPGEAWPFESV
UniProt Q8N7R7: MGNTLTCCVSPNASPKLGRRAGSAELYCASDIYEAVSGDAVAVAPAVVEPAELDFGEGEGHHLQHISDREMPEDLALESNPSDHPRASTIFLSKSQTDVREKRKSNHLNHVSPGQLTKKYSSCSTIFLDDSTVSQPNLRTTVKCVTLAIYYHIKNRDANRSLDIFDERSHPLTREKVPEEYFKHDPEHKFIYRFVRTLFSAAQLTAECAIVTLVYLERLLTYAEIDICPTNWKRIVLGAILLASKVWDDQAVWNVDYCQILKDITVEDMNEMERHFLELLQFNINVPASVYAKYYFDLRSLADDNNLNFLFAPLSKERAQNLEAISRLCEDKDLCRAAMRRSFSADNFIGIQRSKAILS
UniProt P24863: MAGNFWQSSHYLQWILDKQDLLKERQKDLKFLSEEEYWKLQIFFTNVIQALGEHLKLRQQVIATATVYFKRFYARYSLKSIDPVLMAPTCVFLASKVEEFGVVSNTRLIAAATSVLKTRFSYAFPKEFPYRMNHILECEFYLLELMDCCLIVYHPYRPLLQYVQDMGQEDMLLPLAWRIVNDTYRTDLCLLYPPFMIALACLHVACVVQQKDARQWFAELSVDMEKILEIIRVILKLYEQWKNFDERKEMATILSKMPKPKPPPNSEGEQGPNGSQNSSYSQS
UniProt P14635, whole entry, looked up: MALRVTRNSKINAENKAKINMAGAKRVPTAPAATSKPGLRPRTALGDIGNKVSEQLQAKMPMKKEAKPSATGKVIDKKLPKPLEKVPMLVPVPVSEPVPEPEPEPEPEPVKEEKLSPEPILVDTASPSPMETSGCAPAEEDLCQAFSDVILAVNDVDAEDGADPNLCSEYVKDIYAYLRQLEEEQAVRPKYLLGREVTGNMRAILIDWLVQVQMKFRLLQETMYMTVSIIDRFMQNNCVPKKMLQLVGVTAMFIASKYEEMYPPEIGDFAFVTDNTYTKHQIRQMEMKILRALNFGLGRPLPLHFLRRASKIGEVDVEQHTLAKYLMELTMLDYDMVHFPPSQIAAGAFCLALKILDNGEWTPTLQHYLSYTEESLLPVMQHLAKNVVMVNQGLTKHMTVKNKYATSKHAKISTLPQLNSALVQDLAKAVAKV
UniProt P51946: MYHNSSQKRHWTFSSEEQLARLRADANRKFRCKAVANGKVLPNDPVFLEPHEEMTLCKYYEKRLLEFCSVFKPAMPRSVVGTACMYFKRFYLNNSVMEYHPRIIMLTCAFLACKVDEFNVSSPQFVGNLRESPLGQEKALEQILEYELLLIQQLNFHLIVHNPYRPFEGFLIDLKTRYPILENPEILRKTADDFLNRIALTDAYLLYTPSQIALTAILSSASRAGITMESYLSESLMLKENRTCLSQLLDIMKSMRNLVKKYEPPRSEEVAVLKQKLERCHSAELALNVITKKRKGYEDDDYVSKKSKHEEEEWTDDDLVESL
UniProt O95273: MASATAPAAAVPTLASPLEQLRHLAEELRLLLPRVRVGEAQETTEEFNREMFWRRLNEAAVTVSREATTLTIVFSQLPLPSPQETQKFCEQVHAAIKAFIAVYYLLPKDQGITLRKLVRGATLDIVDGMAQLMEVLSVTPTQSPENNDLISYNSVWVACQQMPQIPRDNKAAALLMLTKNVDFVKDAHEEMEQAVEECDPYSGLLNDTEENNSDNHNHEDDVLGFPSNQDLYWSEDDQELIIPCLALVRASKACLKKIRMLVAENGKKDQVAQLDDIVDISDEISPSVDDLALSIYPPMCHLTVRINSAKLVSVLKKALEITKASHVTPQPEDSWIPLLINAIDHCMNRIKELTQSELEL
UniProt Q15834: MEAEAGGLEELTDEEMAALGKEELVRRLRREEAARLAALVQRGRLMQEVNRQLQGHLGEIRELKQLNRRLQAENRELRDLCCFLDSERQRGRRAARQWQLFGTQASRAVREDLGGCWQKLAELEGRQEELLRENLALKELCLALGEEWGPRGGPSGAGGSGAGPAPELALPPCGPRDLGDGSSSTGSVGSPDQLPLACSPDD
UniProt Q13951, whole entry, looked up: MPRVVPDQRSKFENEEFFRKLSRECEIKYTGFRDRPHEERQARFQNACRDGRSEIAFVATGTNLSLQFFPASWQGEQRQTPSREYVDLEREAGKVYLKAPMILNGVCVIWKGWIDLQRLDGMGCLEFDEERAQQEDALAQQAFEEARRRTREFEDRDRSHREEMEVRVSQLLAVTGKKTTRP
UniProt O75794: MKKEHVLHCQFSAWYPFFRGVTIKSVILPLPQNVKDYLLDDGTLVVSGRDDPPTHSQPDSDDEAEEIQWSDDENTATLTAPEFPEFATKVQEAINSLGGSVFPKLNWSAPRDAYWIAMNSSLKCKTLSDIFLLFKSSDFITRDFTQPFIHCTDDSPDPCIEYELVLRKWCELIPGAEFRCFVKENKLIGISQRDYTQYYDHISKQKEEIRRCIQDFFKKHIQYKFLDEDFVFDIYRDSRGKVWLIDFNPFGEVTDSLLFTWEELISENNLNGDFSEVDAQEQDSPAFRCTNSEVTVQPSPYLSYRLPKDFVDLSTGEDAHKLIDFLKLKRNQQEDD
UniProt P24864, whole entry, looked up: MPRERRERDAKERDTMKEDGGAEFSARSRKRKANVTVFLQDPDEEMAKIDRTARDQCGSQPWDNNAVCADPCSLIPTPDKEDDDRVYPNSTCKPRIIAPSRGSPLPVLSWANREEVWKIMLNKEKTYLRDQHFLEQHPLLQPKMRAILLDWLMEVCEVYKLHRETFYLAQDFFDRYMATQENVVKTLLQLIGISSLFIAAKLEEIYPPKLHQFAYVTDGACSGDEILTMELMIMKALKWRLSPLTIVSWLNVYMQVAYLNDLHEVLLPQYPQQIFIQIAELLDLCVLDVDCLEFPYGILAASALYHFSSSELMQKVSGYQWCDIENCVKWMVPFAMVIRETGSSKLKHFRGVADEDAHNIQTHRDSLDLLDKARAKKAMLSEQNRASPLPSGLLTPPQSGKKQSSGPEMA
UniProt Q7L3B6: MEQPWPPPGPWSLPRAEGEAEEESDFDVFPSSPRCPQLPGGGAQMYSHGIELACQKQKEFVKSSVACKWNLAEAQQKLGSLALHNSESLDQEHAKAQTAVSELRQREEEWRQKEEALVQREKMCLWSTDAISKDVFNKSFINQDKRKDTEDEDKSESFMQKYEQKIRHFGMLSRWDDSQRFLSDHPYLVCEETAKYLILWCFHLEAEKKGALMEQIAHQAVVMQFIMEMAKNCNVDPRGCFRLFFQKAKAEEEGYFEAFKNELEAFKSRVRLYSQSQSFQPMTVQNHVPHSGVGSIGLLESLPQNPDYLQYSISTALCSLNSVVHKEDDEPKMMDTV
UniProt P08962, whole entry, looked up: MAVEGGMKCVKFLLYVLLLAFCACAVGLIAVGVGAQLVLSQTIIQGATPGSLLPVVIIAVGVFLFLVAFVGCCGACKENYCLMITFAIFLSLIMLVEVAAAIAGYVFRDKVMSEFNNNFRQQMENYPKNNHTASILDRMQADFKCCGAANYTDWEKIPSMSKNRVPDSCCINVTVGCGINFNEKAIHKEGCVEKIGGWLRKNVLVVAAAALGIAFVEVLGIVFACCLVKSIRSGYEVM
UniProt Q04900: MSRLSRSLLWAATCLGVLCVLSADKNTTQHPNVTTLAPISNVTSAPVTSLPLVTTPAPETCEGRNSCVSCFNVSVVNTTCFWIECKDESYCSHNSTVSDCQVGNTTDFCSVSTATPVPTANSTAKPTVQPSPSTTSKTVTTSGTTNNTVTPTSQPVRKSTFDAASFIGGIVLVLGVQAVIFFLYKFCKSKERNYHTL
UniProt P14209: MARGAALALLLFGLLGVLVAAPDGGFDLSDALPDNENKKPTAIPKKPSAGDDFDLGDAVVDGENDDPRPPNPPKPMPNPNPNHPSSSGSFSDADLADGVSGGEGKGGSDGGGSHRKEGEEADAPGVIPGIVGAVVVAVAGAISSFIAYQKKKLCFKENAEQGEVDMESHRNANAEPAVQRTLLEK
UniProt O15234, whole entry, looked up: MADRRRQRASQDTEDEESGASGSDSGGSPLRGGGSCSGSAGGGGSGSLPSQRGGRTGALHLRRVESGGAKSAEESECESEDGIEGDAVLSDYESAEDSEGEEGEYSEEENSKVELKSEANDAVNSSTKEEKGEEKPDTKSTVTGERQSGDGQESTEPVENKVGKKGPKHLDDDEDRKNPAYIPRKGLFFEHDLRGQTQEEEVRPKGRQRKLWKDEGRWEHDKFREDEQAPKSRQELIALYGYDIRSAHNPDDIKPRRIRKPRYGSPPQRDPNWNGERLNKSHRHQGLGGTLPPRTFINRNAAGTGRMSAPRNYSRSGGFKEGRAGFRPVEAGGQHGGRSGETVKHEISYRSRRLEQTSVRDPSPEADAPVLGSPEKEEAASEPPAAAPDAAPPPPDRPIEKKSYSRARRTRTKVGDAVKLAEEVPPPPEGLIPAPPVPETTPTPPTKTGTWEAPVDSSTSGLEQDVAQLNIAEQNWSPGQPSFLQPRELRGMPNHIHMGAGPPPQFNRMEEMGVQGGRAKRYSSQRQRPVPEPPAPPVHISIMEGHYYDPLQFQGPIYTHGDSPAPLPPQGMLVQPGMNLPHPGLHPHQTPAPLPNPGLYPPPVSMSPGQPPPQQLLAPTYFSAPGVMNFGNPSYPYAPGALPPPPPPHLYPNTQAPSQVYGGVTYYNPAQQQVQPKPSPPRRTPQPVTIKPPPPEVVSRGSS
UniProt P48509: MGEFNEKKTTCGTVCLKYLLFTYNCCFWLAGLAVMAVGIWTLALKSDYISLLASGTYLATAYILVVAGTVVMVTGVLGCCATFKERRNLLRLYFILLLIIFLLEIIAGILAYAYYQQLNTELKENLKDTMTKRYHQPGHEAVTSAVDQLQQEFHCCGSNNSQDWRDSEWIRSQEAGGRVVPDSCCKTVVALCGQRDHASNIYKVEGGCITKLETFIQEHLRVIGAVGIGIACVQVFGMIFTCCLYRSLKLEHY
UniProt O60563, whole entry, looked up: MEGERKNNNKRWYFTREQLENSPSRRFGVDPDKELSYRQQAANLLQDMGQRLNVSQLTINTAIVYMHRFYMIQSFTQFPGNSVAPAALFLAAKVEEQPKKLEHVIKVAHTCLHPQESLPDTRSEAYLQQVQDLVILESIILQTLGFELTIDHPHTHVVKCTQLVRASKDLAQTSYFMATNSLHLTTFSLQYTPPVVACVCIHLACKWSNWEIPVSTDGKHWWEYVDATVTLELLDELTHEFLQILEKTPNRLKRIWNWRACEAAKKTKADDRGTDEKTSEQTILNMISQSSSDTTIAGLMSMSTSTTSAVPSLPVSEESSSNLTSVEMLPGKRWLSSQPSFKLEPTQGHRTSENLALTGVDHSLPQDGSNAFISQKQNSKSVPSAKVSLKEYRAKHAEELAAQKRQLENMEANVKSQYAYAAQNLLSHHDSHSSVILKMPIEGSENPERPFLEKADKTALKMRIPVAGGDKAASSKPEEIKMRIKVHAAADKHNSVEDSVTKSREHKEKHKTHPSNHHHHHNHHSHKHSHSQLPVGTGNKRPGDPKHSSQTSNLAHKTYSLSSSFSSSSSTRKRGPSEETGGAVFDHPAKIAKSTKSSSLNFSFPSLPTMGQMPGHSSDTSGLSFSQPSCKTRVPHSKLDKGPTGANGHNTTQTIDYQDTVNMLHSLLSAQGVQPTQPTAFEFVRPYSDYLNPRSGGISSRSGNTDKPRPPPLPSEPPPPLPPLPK

Experiments:
Assay in all cases: log2 fold change, soluble protein after heating vs DMSO (PISA); higher = thermal stabilisation; K562 cells, 10 uM, 30 min; active = over 0.2 and 3.5 SD of the protein, either way, in both replicates (recomputed)
erlotinib = compound: C#Cc1cccc(Nc2ncnc3cc(OCCOC)c(OCCOC)cc23)c1 [erlotinib]
Summary of the method: (§1)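 Values are thermal stability changes relative to control samples and are taken from duplicates. They are stated as log2 fold changes. Before quantification by TMTpro 16plex LC-MS/MS with equalised channel sums, K562 cells at 2×10^6 cells/mL were treated with 10 μM compound for 30 min, heated in aliquots for 3 min across 48°C-58°C, pooled, extracted in PBS with 0.5% NP-40 at 4°C, and centrifuged at 21,000xg for 90 min to give the soluble supernatant.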

[1] = compound: C/C(=N\NC(=O)C1=CC(=CC=C1)S(=O)(=O)N2CCOCC2)/C3=C(C=CC(=C3)Cl)O
Summary of the method: as §1

[2] = compound: C1=CC(=C(C=C1Cl)C2=NC3=NC=CN=C3C(=N2)NC4=CC=NC=C4)F
Summary of the method: as §1

[3] = compound: C1=CC(=CC=C1C2=NC3=C(N2)C=C(C=C3)C(=O)N)OC4=CC=C(C=C4)Cl
Summary of the method: as §1

[4] = compound: C1=CC2=C(C=CC(=C2)/C=C\3/C(=O)NC(=NCC4=CC=CS4)S3)N=C1
Summary of the method: as §1

[5] = compound: C1=CC2=NC=CN=C2C=C1/C=C/3\C(=O)NC(=O)S3
Summary of the method: as §1

[6] = compound: C1=CC=C(C=C1)C2=NC(=C(N2)C3=CC=NC=C3)C4=CC(=C(C=C4)Cl)O
Summary of the method: as §1

[7] = compound: C1=CC=C2C(=C1)C3=NNC4=CC=CC(=C43)C2=O
Summary of the method: as §1

[8] = compound: C1CCN(C1)C(=O)NC2=CC=CC(=C2)NC3=NC=C(C(=N3)NCCC4=CN=CN4)Br
Summary of the method: as §1

[9] = compound: C1CN(CCC1(CC2=CC=C(C=C2)Cl)N)C3=NC=NC4=C3C=CN4
Summary of the method: as §1

IRAK-1-4 Inhibitor I = compound: C1COCCN1CCN2C3=CC=CC=C3N=C2NC(=O)C4=CC(=CC=C4)[N+](=O)[O-] [IRAK-1-4 Inhibitor I]
Summary of the method: as §1

ibrutinib = compound: C=CC(=O)N1CCC[C@@H](n2nc(-c3ccc(Oc4ccccc4)cc3)c3c(N)ncnc32)C1 [ibrutinib]
Summary of the method: as §1

[10] = compound: CC(=O)c1cnc2ccc(-c3cc(Cl)c(O)c(Cl)c3)nc2c1N[C@H]1CC[C@H](CN(C)C)CC1
Summary of the method: as §1

ralimetinib = compound: CC(C)(C)Cn1c(N)nc2ccc(-c3[nH]c(C(C)(C)C)nc3-c3ccc(F)cc3)nc21 [ralimetinib]
Summary of the method: as §1

[11] = compound: CC(C)(O)CC(=O)NCCn1ccc2ncnc(Nc3ccc(Oc4cccc(C(F)(F)F)c4)c(Cl)c3)c21
Summary of the method: as §1

[12] = compound: CC(C)C1=C2N=C(C=C(N2N=C1)NCC3=CC=CC=C3)NCCCCCCN
Summary of the method: as §1

[13] = compound: CC(C)C[C@@H](C=O)NC(=O)[C@H](CC(C)C)NC(=O)[C@H](CC(C)C)NC(=O)OCc1ccccc1
Summary of the method: as §1

pinometostat = compound: CC(C)N(C[C@H]1O[C@@H](n2cnc3c(N)ncnc32)[C@H](O)[C@@H]1O)[C@H]1C[C@@H](CCc2nc3cc(C(C)(C)C)ccc3[nH]2)C1 [pinometostat]
Summary of the method: as §1

[14] = compound: CC1=C(C2=C(C=C1)C(=O)C3=CC=CC=C3N2CCCN)C
Summary of the method: as §1

[15] = compound: CC1=C(C(CC(=O)N1)C2=CC=C(C=C2)C(F)(F)F)C(=O)NC3=C(C=C4C(=C3)C=NN4)F
Summary of the method: as §1

Target	log2 fold change (erlotinib)	log2 fold change [1]	log2 fold change [2]	log2 fold change [3]	log2 fold change [4]	log2 fold change [5]	log2 fold change [6]	log2 fold change [7]	log2 fold change [8]	log2 fold change [9]	log2 fold change (IRAK-1-4 Inhibitor I)	log2 fold change (ibrutinib)	log2 fold change [10]	log2 fold change (ralimetinib)	log2 fold change [11]	log2 fold change [12]	log2 fold change [13]	log2 fold change (pinometostat)	log2 fold change [14]	log2 fold change [15]
CCDC9 (UniProt Q9Y3X0)	inactive: 0.017	inactive: -0.116	inactive: -0.036	inactive: 0.047	inactive: -0.045	inactive: 0.034	inactive: 0.027	inactive: -0.02	inactive: 0.062	inactive: 0.034	inactive: -0.05	inactive: 0.078	inactive: 0.173	inactive: 0.031	inactive: 0.053	inactive: 0.105	inactive: 0.087	inactive: -0.024	active: 0.296	
CCNYL1 (UniProt Q8N7R7)	inactive: 0.055	inactive: -0.138	inactive: -0.037	inactive: 0.036	inactive: 0.142	inactive: -0.04		inactive: -0.018			inactive: 0.051	inactive: 0.261	inactive: -0.129		inactive: -0.001	inactive: -0.077		inactive: 0.033		inactive: -0.02
CCNC (UniProt P24863)	inactive: -0.056	inactive: -0.077	inactive: -0.122	inactive: -0.026	inactive: 0.096	inactive: 0.256	inactive: -0.001	inactive: 0.209			inactive: 0.071	inactive: -0.082	active: 0.595	inactive: -0.027	inactive: 0.053	inactive: 0.041	inactive: 0.071	inactive: -0.058		
CCNB1 (UniProt P14635)	inactive: 0.012	inactive: 0.013	inactive: 0.03	inactive: 0.044	inactive: 0.013	inactive: 0.006	inactive: -0.016	inactive: 0.002	inactive: -0.011	inactive: -0.018	inactive: 0.035	inactive: -0.024	active: -0.221	inactive: -0.016	inactive: -0.005	inactive: -0.014	inactive: 0.006	inactive: -0.018	inactive: 0.007	
CCNH (UniProt P51946)	inactive: -0.022	inactive: 0.021	inactive: 0.034	inactive: -0.016	inactive: -0.045	inactive: 0.031	inactive: 0.022	inactive: -0.004	inactive: -0.011	inactive: -0.015	inactive: -0.01	inactive: -0.04	active: -0.24	inactive: -0.04	inactive: -0.009	inactive: 0.084	inactive: -0.053	inactive: 0.022	inactive: -0.01	
CCNDBP1 (UniProt O95273)	inactive: 0.009	inactive: 0.191		inactive: 0.105	inactive: -0.011	inactive: 0.034	inactive: 0.076	inactive: -0.122	inactive: -0.086	inactive: -0.068		inactive: -0.184	inactive: 0.071	inactive: 0.168		inactive: -0.077	inactive: -0.027		inactive: -0.166	
CCDC85B (UniProt Q15834)	inactive: -0.038	inactive: -0.002		inactive: -0.104	inactive: -0.11	inactive: 0.015		inactive: -0.013	inactive: 0.013	inactive: -0.257		inactive: 0.088	inactive: -0.045			inactive: -0.078			inactive: -0.088	
CBFB (UniProt Q13951)	inactive: 0.091	inactive: 0.064		inactive: -0.086	inactive: 0.092	inactive: 0.013	inactive: -0.131	inactive: -0.013	inactive: 0.002	inactive: -0.043		inactive: -0.009	inactive: -0.038	inactive: 0.179		inactive: -0.222	inactive: 0.097		inactive: -0.008	inactive: -0.037
CCNK isoform 4 (UniProt O75909)	inactive: 0.079	inactive: 0.006	inactive: -0.138	inactive: -0.016	inactive: -0.126	inactive: -0.013	inactive: -0.068	inactive: -0.077	inactive: 0.047	inactive: -0.126	inactive: -0.143	inactive: 0.02	inactive: -0.058	inactive: 0.031	inactive: -0.007	inactive: -0.008	inactive: 0.045	inactive: 0.15	inactive: -0.047	
CDC123 (UniProt O75794)	inactive: -0.039	inactive: 0.038	inactive: 0.011	inactive: 0.036	inactive: -0.021	inactive: 0.032	inactive: 0.048	inactive: -0.001	inactive: -0.001	inactive: 0.023	inactive: -0.023	inactive: -0.009	inactive: -0.026	inactive: -0.015	inactive: -0.088	inactive: -0.05	inactive: 0.037	inactive: -0.009	inactive: 0.001	
CCNE1 (UniProt P24864)	inactive: -0.129	inactive: -0.082	inactive: 0.354	inactive: 0.048	inactive: -0.046	inactive: 0.031	inactive: -0.039	inactive: 0.125	inactive: 0.004	inactive: -0.545		inactive: 0.013	inactive: -0.134	inactive: -0.004	inactive: 0.108	inactive: 0.251	inactive: 0.031		inactive: -0.226	
CDC37L1 (UniProt Q7L3B6)	inactive: -0.069	inactive: 0.008	inactive: -0.007	inactive: -0.035	inactive: 0.054	inactive: 0.068	inactive: 0	inactive: -0.012	inactive: 0.203	inactive: 0.357	inactive: 0.004	inactive: -0.018	inactive: -0.012	inactive: -0.059	inactive: -0.118	inactive: -0.004	inactive: 0	inactive: -0.015	inactive: -0.281	
CD63 (UniProt P08962)	inactive: 0.01	inactive: 0.024	inactive: -0.045	inactive: -0.089	inactive: -0.027	inactive: 0.069	inactive: 0.009	inactive: 0.002	inactive: 0.004	inactive: 0.034	inactive: 0.022	inactive: 0.036	inactive: 0.032	inactive: 0.047	inactive: 0.006	inactive: 0.081	inactive: 0.056	inactive: 0.007	inactive: 0.003	
CCDC102A (UniProt Q96A19)	inactive: -0.38	inactive: -0.131	inactive: 0.052	inactive: 0.112	inactive: -0.055			inactive: 0.032					inactive: -0.027		inactive: 0.025	inactive: 0.264				
CD164 (UniProt Q04900)	inactive: -0.067	inactive: 0.303	inactive: -0.05	inactive: 0.166	inactive: 0.069	inactive: -0.062	inactive: -0.008	inactive: -0.382				inactive: 0.045	inactive: -0.336	inactive: -0.033	inactive: -0.016	inactive: 0.126	inactive: 0.015			inactive: 0.109
CD99 (UniProt P14209)	inactive: -0.012	inactive: 0.009	inactive: 0.014	inactive: 0.103	inactive: 0.077	inactive: 0.082		inactive: -0.165	inactive: 0.019	inactive: -0.037	inactive: 0.04	inactive: 0	inactive: -0.103		inactive: -0.033	inactive: 0.072		inactive: -0.094	inactive: 0.123	inactive: 0.015
CASC3 (UniProt O15234)	inactive: -0.084	inactive: -0.166	inactive: -0.066	inactive: 0.068	inactive: 0	inactive: -0.047	inactive: 0.023	inactive: -0.29	inactive: 0.089	inactive: 0.022	inactive: -0.014	inactive: 0.1	active: 0.582	inactive: 0.07	inactive: -0.023	inactive: 0.411	inactive: -0.036	inactive: -0.005	inactive: 0.206	
CD151 (UniProt P48509)	inactive: -0.035	inactive: 0.029	inactive: 0.045	inactive: 0.103	inactive: -0.021	inactive: 0.069	inactive: 0.021	inactive: -0.125	inactive: -0.021	inactive: 0.113	inactive: -0.077	inactive: 0.012	inactive: 0.025	inactive: 0.013	inactive: -0.021	inactive: -0.017	inactive: 0.027	inactive: -0.054	inactive: 0.083	
CCNT1 (UniProt O60563)	inactive: -0.026	inactive: 0.036	inactive: -0.141	inactive: 0.047	inactive: -0.041	inactive: -0.05	inactive: -0.129	inactive: -0.084	inactive: -0.014	inactive: -0.059	inactive: -0.004	inactive: 0.001	active: -0.603	inactive: 0.054	inactive: 0.042	active: -0.375	inactive: 0.105	inactive: 0.213	inactive: -0.112	

Another view of some results above:
Target | log2 fold change (erlotinib) | log2 fold change [1] | log2 fold change [2] | log2 fold change [3] | log2 fold change [4] | log2 fold change [5] | log2 fold change [6] | log2 fold change [7] | log2 fold change [8] | log2 fold change [9] | log2 fold change (IRAK-1-4 Inhibitor I) | log2 fold change (ibrutinib) | log2 fold change [10] | log2 fold change (ralimetinib) | log2 fold change [11] | log2 fold change [12] | log2 fold change [13] | log2 fold change (pinometostat) | log2 fold change [14] | log2 fold change [15]
CCDC9 (UniProt Q9Y3X0) | inactive: 0.017 | inactive: -0.116 | inactive: -0.036 | inactive: 0.047 | inactive: -0.045 | inactive: 0.034 | inactive: 0.027 | inactive: -0.02 | inactive: 0.062 | inactive: 0.034 | inactive: -0.05 | inactive: 0.078 | inactive: 0.173 | inactive: 0.031 | inactive: 0.053 | inactive: 0.105 | inactive: 0.087 | inactive: -0.024 | active: 0.296 | 
CCNB1 (UniProt P14635) | inactive: 0.012 | inactive: 0.013 | inactive: 0.03 | inactive: 0.044 | inactive: 0.013 | inactive: 0.006 | inactive: -0.016 | inactive: 0.002 | inactive: -0.011 | inactive: -0.018 | inactive: 0.035 | inactive: -0.024 | active: -0.221 | inactive: -0.016 | inactive: -0.005 | inactive: -0.014 | inactive: 0.006 | inactive: -0.018 | inactive: 0.007 | 
CCNK isoform 4 (UniProt O75909) | inactive: 0.079 | inactive: 0.006 | inactive: -0.138 | inactive: -0.016 | inactive: -0.126 | inactive: -0.013 | inactive: -0.068 | inactive: -0.077 | inactive: 0.047 | inactive: -0.126 | inactive: -0.143 | inactive: 0.02 | inactive: -0.058 | inactive: 0.031 | inactive: -0.007 | inactive: -0.008 | inactive: 0.045 | inactive: 0.15 | inactive: -0.047 | 
CDC123 (UniProt O75794) | inactive: -0.039 | inactive: 0.038 | inactive: 0.011 | inactive: 0.036 | inactive: -0.021 | inactive: 0.032 | inactive: 0.048 | inactive: -0.001 | inactive: -0.001 | inactive: 0.023 | inactive: -0.023 | inactive: -0.009 | inactive: -0.026 | inactive: -0.015 | inactive: -0.088 | inactive: -0.05 | inactive: 0.037 | inactive: -0.009 | inactive: 0.001 | 
CCNT1 (UniProt O60563) | inactive: -0.026 | inactive: 0.036 | inactive: -0.141 | inactive: 0.047 | inactive: -0.041 | inactive: -0.05 | inactive: -0.129 | inactive: -0.084 | inactive: -0.014 | inactive: -0.059 | inactive: -0.004 | inactive: 0.001 | active: -0.603 | inactive: 0.054 | inactive: 0.042 | active: -0.375 | inactive: 0.105 | inactive: 0.213 | inactive: -0.112 | 
